Measured values: PubChem BioAssay AID493014 (National Center for Advancing Translational Sciences (NCATS), 2011)
The other results are listed elsewhere or left out. Shown are side measurements of this screen, not its main read-out; they come without a call. Most of these compounds were active or inconclusive in the main read-out, so they are no random draw. The note in brackets gives the kind of curve behind each potency; many fits are weak.

Experiment: qHTS Assay to Find Inhibitors of Chronic Active B-Cell Receptor Signaling
Settings: ABC-DLBCL IkBa-CBG/CBR reporter, luminescence ratio (green luciferase fused to IkBa over red control in TMD8 lymphoma cells), 4 h
Outline: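 TMD8 human ABC-DLBCL cells with doxycycline-inducible IκBα–green luciferase fusion and unfused red luciferase, in 0.5% FBS medium; compounds up to 46 uM, 4 h at 37C. Green/red luminescence ratio, filter-overlap corrected, fitted to concentration-response curves.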

[1] = measured here: CBR red luminescence, cell number
[2] = measured here: IkBa-CBG green luminescence

| Compound | AC50 [1] | AC50 [2] |
| --- | --- | --- |
| CCOC(=O)c1ccc(CNC(=O)CSc2nnnn2-c2ccc(Cl)cc2)o1 | 2 µM [rising, partial curve, poor fit] |  |
| Clc1ccc(CNc2cnccn2)cc1Cl | 5.01 µM [rising, partial curve, poor fit] |  |
| COc1cc(/C=C2/SC(=NCc3ccccc3)N(Cc3ccccc3)C2=O)ccc1O | 7.31 µM [rising, partial curve, poor fit] |  |
| COCc1cc(=O)[nH]c(/N=C(\N)Nc2ccc(C)cc2C)n1 | 31.6 µM [rising, single point] |  |
| O=C(NCCS(=O)(=O)NCC1CCCO1)c1ccccc1 (stereo not drawn) | 6.51 µM [falling, partial curve] |  |
| CCn1c(SCC(=O)Nc2cccc(C)c2)nc2ccccc2c1=O | 14.1 µM [falling, single point] |  |
| O=C(Nc1cc(N2CCOCC2)ncn1)NC1(C(F)(F)F)Oc2ccccc2O1 | 10.3 µM [falling, single point] |  |
| Cc1cc(Br)cc(C)c1NC(=O)c1ccc(C#N)cc1F | 1.12 µM [rising, full curve, poor fit] |  |
| COc1cccc(CN(C)C(c2ccccc2)c2ccccc2)c1OC | 35.5 µM [rising, single point] |  |
| CC1(C)O[C@@H]2[C@H](O1)[C@@H](CO)O[C@H]2n1cc(Br)c(=O)[nH]c1=O | 0.00461 µM [rising, full curve, poor fit] |  |
| CCOC(=O)C1=NN(c2ccccc2)C2(S1)SC(C(C)=O)=C(C)N2c1ccccc1 (stereo not drawn) | 0.164 µM [falling, full curve, poor fit] |  |
| Cc1c(C(=O)Nc2cc(F)cc(F)c2)cnn1-c1ccccc1 | 0.631 µM [rising, full curve, poor fit] |  |
| COc1cc(CNC(C)C23CC4CC(CC(C4)C2)C3)ccc1OCC(=O)NC(C)(C)C (stereo not drawn) | 12.6 µM [falling, partial curve] |  |
| N=C1/C(=C\c2ccc(-c3ccc(C(=O)O)cc3)o2)C(=O)N=C2SC=C(c3ccccc3)N12 | 2 µM [falling, partial curve, poor fit] |  |
| COc1ccc(CNC(=O)NC2CCCCC2)cc1 | 35.5 µM [rising, single point] |  |
| Cc1ccc(C(=O)NC(=S)/C=C2\N(C)c3ccccc3C2(C)C)cc1 | 29.1 µM [rising, single point] |  |
| CCN(CC)CCN(CC(=O)N(C1CCCCC1)C1CCCCC1)C(=O)c1ccco1 | 2.51 µM [falling, full curve, poor fit] |  |
| Fc1nc(F)c(F)c(NCCCNc2c(F)c(F)nc(F)c2F)c1F | 20 µM [falling, single point] | 15.8 µM [rising, partial curve, poor fit] |
| COc1ccc(OC)c2[nH]c(=O)c(CCNC(=O)C3CCCCC3)cc12 | 7.08 µM [rising, full curve] |  |
| CC12CCC(C(=O)NCCN3CCCCC3)(CC1=O)C2(C)C (stereo not drawn) | 3.55 µM [falling, partial curve, poor fit] |  |
| O=C(NC1=C(NC2CCS(=O)(=O)C2)C(=O)c2ccccc2C1=O)c1ccccc1 (stereo not drawn) | 14.1 µM [falling, single point] |  |

| Compound | AC50 [1] | AC50 [2] |
| --- | --- | --- |
| Cc1cc(NC(=O)CN2CCc3ccccc3C2)nc2c1c(=O)oc1ccccc12 | 35.5 µM [falling, single point] |  |
| Cc1nc2ccc(C(=O)c3ccccc3)cc2[nH]1 | 32.6 µM [falling, single point] |  |
| CCCn1c(SCC(=O)Nc2cc(S(=O)(=O)N3CCCCC3)ccc2C)n[nH]c1=O | 36.6 µM [falling, partial curve, poor fit] |  |
| O=C(N/C(=C/c1ccccc1Cl)C(=O)N1CCOCC1)c1ccccc1 | 2.06 µM [rising, partial curve, poor fit] |  |
| CC(C)COc1cccc(C(=O)Nc2ccc(S(=O)(=O)N3CCOCC3)cc2)c1 | 18.4 µM [falling, single point] |  |
| O=[N+]([O-])c1cc(/C=N/O)ccc1Oc1ccccc1Cl | 35.5 µM [falling, single point] |  |
| O=C(NC(=S)Nc1ccc(NC(=O)c2cccs2)cc1)c1cc2ccccc2o1 | 0.58 µM [rising, partial curve, poor fit] |  |
| COc1cc2ccccc2cc1C(=O)N/N=C/c1ccc2c(c1)OCO2 | 35.5 µM [falling, single point] | 8.91 µM [falling, partial curve, poor fit] |
| COc1cccc(OC)c1C(=O)Nc1sc2c(c1C(N)=O)CCN(Cc1ccccc1)C2 | 3.98 µM [rising, single point] |  |
| CC(=O)N1CCN(C(=O)c2ccc(Oc3ccccc3)cc2)CC1 | 1.58 µM [falling, partial curve, poor fit] |  |
| COc1ccc(C(=O)Nc2nncs2)cc1S(=O)(=O)N1CC(c2ccccc2)CC1=O (stereo not drawn) | 15.8 µM [falling, single point] | 10 µM [rising, partial curve, poor fit] |
| Cc1cc(C(=O)CSc2nc3ccccc3o2)c(C)n1C1CC1 | 0.291 µM [rising, full curve, poor fit] |  |
| CC(=O)CC(=O)Nc1ccc(Nc2ccccc2)cc1 | 29.1 µM [falling, single point] |  |
| Cc1ccc(CNC(=O)Cc2ccc(-n3c(=O)[nH]c4ccsc4c3=O)cc2)cc1 | 16.4 µM [rising, partial curve] | 13 µM [falling, partial curve] |
| CCN(CC(=O)Nc1ccc(NC(C)=O)cc1)C(=O)C1(c2ccccc2)CC1 | 6.51 µM [falling, single point] |  |
| CN(C)c1ccc(Nc2ncnc3ccc(Br)cc23)cc1 | 39.8 µM [falling, partial curve, poor fit] |  |
| Cc1cc(C(=O)O)ccc1NCc1ccncc1 | 1.12 µM [rising, full curve, poor fit] |  |
| Cc1ccc2nc(Nc3ccc(C)c(C)c3)c3nncn3c2c1 | 0.447 µM [rising, full curve, poor fit] |  |
| COc1cccc(C(=O)NNC(=O)c2ccccc2Br)c1 | 10 µM [falling, partial curve] |  |
| COc1ccc(N2CCN(S(=O)(=O)c3ccc(F)c(C(=O)Nc4ccccc4Cl)c3)CC2)cc1 | 5.62 µM [rising, single point] |  |
| COc1ccc(OC)c(NC(=O)c2oc(=O)c3ccccc3c2-c2ccccc2)c1 | 1.41 µM [rising, partial curve, poor fit] |  |

5 compounds drawn at random from those above, as already listed:

| Compound | AC50 [1] | AC50 [2] |
| --- | --- | --- |
| O=C(N/C(=C/c1ccccc1Cl)C(=O)N1CCOCC1)c1ccccc1 | 2.06 µM [rising, partial curve, poor fit] |  |
| COc1ccc(N2CCN(S(=O)(=O)c3ccc(F)c(C(=O)Nc4ccccc4Cl)c3)CC2)cc1 | 5.62 µM [rising, single point] |  |
| Cc1cc(Br)cc(C)c1NC(=O)c1ccc(C#N)cc1F | 1.12 µM [rising, full curve, poor fit] |  |
| COc1cc(/C=C2/SC(=NCc3ccccc3)N(Cc3ccccc3)C2=O)ccc1O | 7.31 µM [rising, partial curve, poor fit] |  |
| COc1ccc(OC)c2[nH]c(=O)c(CCNC(=O)C3CCCCC3)cc12 | 7.08 µM [rising, full curve] |  |

Further entries

| Compound | AC50 [1] | AC50 [2] |
| --- | --- | --- |
| CC1CC(C)CN(C(=O)COC(=O)CCC(=O)c2cccs2)C1 (stereo not drawn) | 11.6 µM [rising, partial curve] |  |
| c1cc(-c2noc(CCC3CCCC3)n2)ccn1 | 16.4 µM [rising, partial curve, poor fit] |  |
| CCc1ccc(NC(=O)C2CCN(S(=O)(=O)c3ccc4c(c3)NC(=O)CO4)CC2)cc1 | 5.62 µM [rising, single point] | 5.62 µM [falling, single point] |
| CC(/C=N/NC(=O)c1cc(-c2ccc(Cl)cc2)nc2ccccc12)=C\c1ccco1 | 8.2 µM [rising, partial curve] | 5.8 µM [falling, partial curve] |
| Cc1cc(NC(=O)c2ccccc2O)nc(C)n1 | 15.8 µM [falling, single point] |  |
| COC(=O)[C@H](Cc1ccc(O)cc1)NC(=O)Cn1cnc(C(=O)Nc2ccc(C)c(C)c2)n1 | 0.0082 µM [falling, full curve, poor fit] |  |
| O=C(N(c1ccccc1)c1ccccc1)N(c1ccccc1)c1ccccc1 | 35.5 µM [falling, single point] |  |
| CCCOc1ccc(C(=O)NNC(=S)NC(=O)c2cc(-c3ccc(Cl)cc3)nc3ccccc23)cc1 | 2.24 µM [rising, full curve, poor fit] |  |
| O=C(N/N=C/c1cn(-c2ccccc2)nc1-c1cc2ccccc2o1)c1cccnc1 | 6.51 µM [rising, single point] |  |
| COc1cccc(NC(=O)c2ccc3c(c2)OCO3)c1 | 8.91 µM [falling, partial curve, poor fit] |  |
| CC(=O)c1c(C)[nH]c(C(=O)Nc2cccc(S(=O)(=O)N3CCCCC3)c2)c1C | 23.1 µM [rising, single point] | 20.6 µM [falling, single point] |
| Cc1noc(C(=O)Nc2ccc3c(c2)OCO3)c1Cl | 29.1 µM [falling, single point] |  |
| CS(=O)(=O)c1ccc(NC(=O)CCN2C(=O)C3CC=CCC3C2=O)cc1 (stereo not drawn) | 29.1 µM [falling, single point] |  |
| O=C(Nc1ccc2c(c1)OCCO2)c1ccc(Cl)cc1 | 11.2 µM [falling, partial curve] |  |
| O=C(O)c1ccc(CSc2nc3ccccc3c(=O)n2-c2ccccc2)cc1 | 17.8 µM [rising, single point] |  |
| O=C(Sc1cccc2cccnc12)c1ccccc1Br | 35.5 µM [falling, single point] |  |
| CCOC(=O)N1CCC(NC(=O)C2CCN(S(=O)(=O)c3c(C)noc3C)CC2)CC1 | 4.11 µM [rising, full curve, poor fit] |  |
| COc1cccc(OC)c1OCCCCCCN1CCN(C)CC1 | 35.5 µM [rising, single point] |  |
| Cn1c2ccccc2c2cc(/C=N/NC(=O)c3ccc(O)cc3O)ccc21 | 35.5 µM [falling, single point] |  |
